# Experimental data published in PubChem BioAssay AID651640 (Broad Institute, 2012).
# “And” between values parts separate entries of the source, which are not always exact repeats. Equal entries are not always repeated. Among all 350,000 compounds or so, about 6,000 (1.7%) were called active. Inconclusive results, whose numbers are uncertain, are shown with a selection of clear calls. Cut-off read from the data, not from the text of the source: active = CPE inhibition above about 20% (passing the limit was not always enough); inconclusive = no clear call, values can overlap the other calls; tested in BHK-21 cells. Some structures have more than one record in an assay (separate samples or runs), and their calls can disagree.
# Assay: protection of cells from dengue 2 killing – plate reader, single concentration, primary screen (AID 651640);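 note: 0% = median of neutral control wells and 100% = median of positive control wells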
# Conditions: DENV2-infected cells, cytopathic effect rescue, at 9.99 µM, stronger effect = higher value
row,Structure (SMILES),CPE inhibition
1,CC(C)(C)n1nc2c(c1NC(=O)c1c(F)cccc1F)CS(=O)(=O)C2,inconclusive: 36%
2,O=C(CCc1c[nH]c2ccccc12)OCc1cccc([N+](=O)[O-])c1,active: 26.9%
3,C[C@H]1CN([C@@H](C)CO)S(=O)(=O)c2ccc(/C=C/c3ccccc3)cc2O[C@H]1CN(C)C(=O)NC1CCCC1,inconclusive: 22.6%
4,O=C(C[C@H]1C=C[C@@H](NC(=O)c2cccc(F)c2)[C@@H](CO)O1)Nc1nccs1,inactive: 0.461%
5,C[C@H](CO)N1C[C@H](C)[C@@H](CN(C)S(=O)(=O)c2ccc(C#N)cc2)OCc2cnnn2CCCC1=O,inconclusive: 31.3%
6,CN1c2ccc(-c3ccccc3F)cc2[C@@H]2[C@@H](CCN2C(=O)c2cccc(F)c2)[C@@H]1CO,active: 75.7%
7,CCOc1ccc(NC(=O)CN(C)C(=O)CCc2nc3ccccc3c(=O)[nH]2)cc1OCC,inconclusive: 59.5%
8,CN(C)CCSc1nc(-c2ccccc2)nc2c1CCCC2,inconclusive: 31.7%
9,O=C(O)C[C@@H]1C=C[C@@H](NC(=O)c2ccccc2F)[C@@H](CO)O1,inconclusive: 23.3%
10,CCCc1cc(=O)oc2cc(OCC(=O)Nc3ccc(CN4CCOCC4)cc3)c(Cl)cc12,inactive: 2.98%
11,C[C@H]1CN([C@@H](C)CO)C(=O)c2cc(NC(=O)C3CC3)ccc2O[C@@H]1CN(C)CC1CCCCC1,inactive: 7.71%
12,COc1ccc(C(=O)Nc2ccc(C)cn2)cc1S(=O)(=O)N1CCCc2ccccc21,inconclusive: 25.1%
13,Cc1noc(C)c1NC(=O)Nc1cccc2c1O[C@H](CN(C)S(=O)(=O)c1ccc(F)cc1)[C@@H](C)CN([C@@H](C)CO)C2=O,active: 32.5%
14,CCOC(=O)N1CCN(c2c(N3CCN(c4cc(C)ccc4C)CC3)c(=O)c2=O)CC1,inactive: -7.33%
15,COc1cccc(-c2cnc3c(c2)C(=O)N([C@H](C)CO)C[C@H](C)[C@@H](CN(C)C(C)=O)O3)c1,active: 32%
16,CCC1CCCCN1CCCNC(=O)CN1C(=O)COc2ccccc21 (stereo not given),inconclusive: 35.6%
17,CC(=O)Nc1ccc(S(=O)(=O)N2CCN=C2SCc2ccc([N+](=O)[O-])cc2)cc1,inconclusive: 24.4%
18,Cc1cccc(C)c1NC(=O)CN(C)C(=O)Cn1c(=O)cnc2ccccc21,inconclusive: 65%
19,CSCCC(NC(=O)c1ccc(Cl)cc1)C(=O)OCC(=O)NCc1ccco1 (stereo not given),inconclusive: 55.2%
20,O=C(NCC1COc2ccccc2O1)c1ccc(F)c(S(=O)(=O)N2CCOCC2)c1 (stereo not given),inactive: -4.03%
21,Cc1ccc(NC(=O)c2nnn(-c3cccc(C(F)(F)F)c3)c2N)cc1,inactive: -7.59%
22,CCc1nc2ccc(C(=O)N(C)CCCN(C)C)cn2c1N(CC)CCOC,inconclusive: 21.7%
23,C[C@H]1CN([C@@H](C)CO)C(=O)c2cc(NS(=O)(=O)c3ccccc3)ccc2O[C@H]1CN(C)Cc1ccc(Oc2ccccc2)cc1,active: 34.7%

# Another view of some results above.
row | Structure (SMILES) | CPE inhibition
7 | CCOc1ccc(NC(=O)CN(C)C(=O)CCc2nc3ccccc3c(=O)[nH]2)cc1OCC | inconclusive: 59.5%
8 | CN(C)CCSc1nc(-c2ccccc2)nc2c1CCCC2 | inconclusive: 31.7%
9 | O=C(O)C[C@@H]1C=C[C@@H](NC(=O)c2ccccc2F)[C@@H](CO)O1 | inconclusive: 23.3%

# Next part.

row,Structure (SMILES),CPE inhibition
1,CSCC(=O)N1CCCC(CO)(CCCc2ccccc2)C1 (stereo not given),inconclusive: 21.6%
2,COc1ccc(-c2ccc(C3[C@H]4CNC[C@@H]3N4C(=O)Nc3ccc4c(c3)OCO4)cc2)cc1 (stereo not given in full),active: 24.6% and inactive: -10.7%
3,CS(=O)(=O)N1[C@@H]2Cn3c(ccc(-c4ccc(F)cc4)c3=O)[C@H]1[C@@H](C(=O)N1CCOCC1)[C@@H]2CO,inactive: 10.7%
4,C/C=C/c1ccc([C@H]2[C@@H](CO)N(C(=O)COC)[C@@H]2CNC(=O)CC)cc1,inactive: -11.8%
5,Cc1noc(C)c1S(=O)(=O)N(C)C[C@@H]1Oc2ccc(NC(=O)CCCCCC(=O)Nc3ccccc3N)cc2CC(=O)N([C@@H](C)CO)C[C@@H]1C,active: 29.1%
6,Cc1noc(C)c1NC(=O)Nc1cccc2c1O[C@H](CN(C)S(=O)(=O)c1cn(C)cn1)[C@@H](C)CN([C@H](C)CO)C2=O,inactive: 2.55% and inactive: 12.9%
7,CO[C@H]1CN(C)C(=O)c2cc(NC(=O)C3CC3)ccc2OC[C@@H](C)N(C(=O)NC(C)C)C[C@H]1C,inactive: 2.12%
8,CC1(C)Oc2ccc3ccc(=O)oc3c2C[C@H]1O[C@@H]1O[C@H](CO)[C@@H](O)[C@H](O)[C@H]1O,active: 41.3%
9,Cc1noc(C)c1S(=O)(=O)N1CCN(S(=O)(=O)c2ccccc2C#N)CC1,inconclusive: 30.5%
10,O=C(C1=C[C@H](c2ccc3c(c2)OCO3)C[C@H](OCc2ccc(CO)cc2)O1)N1CCN(Cc2ccc3c(c2)OCO3)CC1,inconclusive: 41.9% and active: 58.5%
11,CCS(=O)(=O)c1nc(S(=O)(=O)c2ccc(Cl)cc2)c(N2CCC(C(N)=O)CC2)s1,inconclusive: 34.1%
12,O=C(C[C@@H]1CC[C@H](NC(=O)c2cnccn2)[C@H](CO)O1)NCc1ccccc1F,inactive: -1.92%
13,Cc1c(NC2=CC(=O)CC(C)(C)C2)c(=O)n(-c2ccccc2)n1C,inactive: -4.21%
14,CC12CCC(=O)N1C(C(=O)Nc1ccccc1N1CCOCC1)CS2 (stereo not given),inconclusive: 28.4%
15,COc1ccc(C(=O)N2C[C@H]3[C@@H](c4ccccc42)[C@@H](CO)N3C(=O)c2ccc(F)cc2)cc1,inconclusive: 20.6%
16,CCNC(=O)[C@@H]1[C@@H](CO)[C@@H]2Cn3c(ccc(C4=CCCC4)c3=O)[C@H]1N2C(=O)CC,inactive: -7.68%
17,N#Cc1cc(C(=O)c2cc(F)ccc2O)cn(Cc2ccccc2)c1=O,inactive: 4.47%
18,O=C(C[C@@H]1CC[C@H]2[C@@H](COC[C@H](O)CN2C(=O)Nc2ccc(F)cc2)O1)NC1Cc2ccccc2C1,active: 24.5%
19,CC(C)NC(=O)N(C)C[C@@H]1Oc2ncc(-c3ccc(C(=O)N(C)C)cc3)cc2C(=O)N([C@@H](C)CO)C[C@@H]1C,inactive: 5.71%
20,O=C(NC1CC1)C1=C[C@H](c2ccc(C(F)(F)F)cc2)C[C@H](OCCCCO)O1,inactive: -10.5%
21,COc1ccc2cc(C(=O)NCc3ccccc3)c(=O)oc2c1,inactive: -1.27%
22,COC(=O)C[C@@H]1CC[C@H](NC(=O)Nc2ccc(C(F)(F)F)cc2)[C@@H](CO)O1,inconclusive: 40%
